Values of other authors as cited in patent publication US7067144B2, “Compositions and methods for systemic inhibition of cartilage degradation” (Omeros Corporation, priority 1998, dated 2006).
For some assays here: For at least one compound, name, drawing or mass did not settle the structure. Some of these results come from one statement about several compounds together.

What was measured:
NFκB activation = settings: IL-1-stimulated RSF; read-out: IC50 PGE2 production; cited from earlier work
NFκB = settings: IL-1-induced; cited from earlier work
iNOS = biological target: T1, iNOS (Homo sapiens, UniProt P35228); settings: cited from earlier work
T1 construct: from tissue; host or cells: cultured chondrocytes and cartilage explants from patients with osteoarthritis

SMILES: NC1=NC(=O)/C(=C2\CCNC(=O)c3[nH]c(Br)cc32)N1 [Hymenialdisine]
- IC50 (NFκB activation): 1000 nM
- reduction in NFκB binding (NFκB): approximately 80%

SMILES: N=C(N)SCCN [S-(aminoethyl) isothiourea]
- potency relative to N^G-monomethyl-L-arginine (iNOS): 2–4 times
- potency relative to N^ω-nitro-L-arginine and N^ω-nitro-L-arginine methyl ester (iNOS): over 300 times
- potency relative to aminoguanidine (iNOS): 5–10 times
